The supplement of paper PMC10849652
The list shows a part of the results.

Amino acid sequences for entries named in this document (tags omitted). A change or cut given only in a name is not applied to a line headed by its entry.
UniProt Q6P2H3: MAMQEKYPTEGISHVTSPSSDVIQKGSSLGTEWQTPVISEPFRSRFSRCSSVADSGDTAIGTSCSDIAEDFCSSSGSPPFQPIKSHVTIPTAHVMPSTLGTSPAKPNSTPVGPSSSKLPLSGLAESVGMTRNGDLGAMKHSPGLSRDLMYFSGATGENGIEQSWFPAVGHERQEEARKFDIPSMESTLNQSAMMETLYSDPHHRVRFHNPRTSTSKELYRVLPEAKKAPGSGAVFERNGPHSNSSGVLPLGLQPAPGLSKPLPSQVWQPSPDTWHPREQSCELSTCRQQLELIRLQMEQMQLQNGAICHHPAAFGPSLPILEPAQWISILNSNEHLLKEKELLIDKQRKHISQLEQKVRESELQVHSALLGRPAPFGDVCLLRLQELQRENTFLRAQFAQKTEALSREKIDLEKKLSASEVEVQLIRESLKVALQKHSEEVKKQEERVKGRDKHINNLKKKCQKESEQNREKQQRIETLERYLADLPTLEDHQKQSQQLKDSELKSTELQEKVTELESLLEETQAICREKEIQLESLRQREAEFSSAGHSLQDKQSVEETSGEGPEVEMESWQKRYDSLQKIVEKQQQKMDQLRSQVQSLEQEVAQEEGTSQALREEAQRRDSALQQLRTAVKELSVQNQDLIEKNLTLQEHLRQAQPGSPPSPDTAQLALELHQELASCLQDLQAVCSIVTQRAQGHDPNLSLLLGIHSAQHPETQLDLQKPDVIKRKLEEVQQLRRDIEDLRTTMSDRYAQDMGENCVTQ
UniProt Q9HCK8: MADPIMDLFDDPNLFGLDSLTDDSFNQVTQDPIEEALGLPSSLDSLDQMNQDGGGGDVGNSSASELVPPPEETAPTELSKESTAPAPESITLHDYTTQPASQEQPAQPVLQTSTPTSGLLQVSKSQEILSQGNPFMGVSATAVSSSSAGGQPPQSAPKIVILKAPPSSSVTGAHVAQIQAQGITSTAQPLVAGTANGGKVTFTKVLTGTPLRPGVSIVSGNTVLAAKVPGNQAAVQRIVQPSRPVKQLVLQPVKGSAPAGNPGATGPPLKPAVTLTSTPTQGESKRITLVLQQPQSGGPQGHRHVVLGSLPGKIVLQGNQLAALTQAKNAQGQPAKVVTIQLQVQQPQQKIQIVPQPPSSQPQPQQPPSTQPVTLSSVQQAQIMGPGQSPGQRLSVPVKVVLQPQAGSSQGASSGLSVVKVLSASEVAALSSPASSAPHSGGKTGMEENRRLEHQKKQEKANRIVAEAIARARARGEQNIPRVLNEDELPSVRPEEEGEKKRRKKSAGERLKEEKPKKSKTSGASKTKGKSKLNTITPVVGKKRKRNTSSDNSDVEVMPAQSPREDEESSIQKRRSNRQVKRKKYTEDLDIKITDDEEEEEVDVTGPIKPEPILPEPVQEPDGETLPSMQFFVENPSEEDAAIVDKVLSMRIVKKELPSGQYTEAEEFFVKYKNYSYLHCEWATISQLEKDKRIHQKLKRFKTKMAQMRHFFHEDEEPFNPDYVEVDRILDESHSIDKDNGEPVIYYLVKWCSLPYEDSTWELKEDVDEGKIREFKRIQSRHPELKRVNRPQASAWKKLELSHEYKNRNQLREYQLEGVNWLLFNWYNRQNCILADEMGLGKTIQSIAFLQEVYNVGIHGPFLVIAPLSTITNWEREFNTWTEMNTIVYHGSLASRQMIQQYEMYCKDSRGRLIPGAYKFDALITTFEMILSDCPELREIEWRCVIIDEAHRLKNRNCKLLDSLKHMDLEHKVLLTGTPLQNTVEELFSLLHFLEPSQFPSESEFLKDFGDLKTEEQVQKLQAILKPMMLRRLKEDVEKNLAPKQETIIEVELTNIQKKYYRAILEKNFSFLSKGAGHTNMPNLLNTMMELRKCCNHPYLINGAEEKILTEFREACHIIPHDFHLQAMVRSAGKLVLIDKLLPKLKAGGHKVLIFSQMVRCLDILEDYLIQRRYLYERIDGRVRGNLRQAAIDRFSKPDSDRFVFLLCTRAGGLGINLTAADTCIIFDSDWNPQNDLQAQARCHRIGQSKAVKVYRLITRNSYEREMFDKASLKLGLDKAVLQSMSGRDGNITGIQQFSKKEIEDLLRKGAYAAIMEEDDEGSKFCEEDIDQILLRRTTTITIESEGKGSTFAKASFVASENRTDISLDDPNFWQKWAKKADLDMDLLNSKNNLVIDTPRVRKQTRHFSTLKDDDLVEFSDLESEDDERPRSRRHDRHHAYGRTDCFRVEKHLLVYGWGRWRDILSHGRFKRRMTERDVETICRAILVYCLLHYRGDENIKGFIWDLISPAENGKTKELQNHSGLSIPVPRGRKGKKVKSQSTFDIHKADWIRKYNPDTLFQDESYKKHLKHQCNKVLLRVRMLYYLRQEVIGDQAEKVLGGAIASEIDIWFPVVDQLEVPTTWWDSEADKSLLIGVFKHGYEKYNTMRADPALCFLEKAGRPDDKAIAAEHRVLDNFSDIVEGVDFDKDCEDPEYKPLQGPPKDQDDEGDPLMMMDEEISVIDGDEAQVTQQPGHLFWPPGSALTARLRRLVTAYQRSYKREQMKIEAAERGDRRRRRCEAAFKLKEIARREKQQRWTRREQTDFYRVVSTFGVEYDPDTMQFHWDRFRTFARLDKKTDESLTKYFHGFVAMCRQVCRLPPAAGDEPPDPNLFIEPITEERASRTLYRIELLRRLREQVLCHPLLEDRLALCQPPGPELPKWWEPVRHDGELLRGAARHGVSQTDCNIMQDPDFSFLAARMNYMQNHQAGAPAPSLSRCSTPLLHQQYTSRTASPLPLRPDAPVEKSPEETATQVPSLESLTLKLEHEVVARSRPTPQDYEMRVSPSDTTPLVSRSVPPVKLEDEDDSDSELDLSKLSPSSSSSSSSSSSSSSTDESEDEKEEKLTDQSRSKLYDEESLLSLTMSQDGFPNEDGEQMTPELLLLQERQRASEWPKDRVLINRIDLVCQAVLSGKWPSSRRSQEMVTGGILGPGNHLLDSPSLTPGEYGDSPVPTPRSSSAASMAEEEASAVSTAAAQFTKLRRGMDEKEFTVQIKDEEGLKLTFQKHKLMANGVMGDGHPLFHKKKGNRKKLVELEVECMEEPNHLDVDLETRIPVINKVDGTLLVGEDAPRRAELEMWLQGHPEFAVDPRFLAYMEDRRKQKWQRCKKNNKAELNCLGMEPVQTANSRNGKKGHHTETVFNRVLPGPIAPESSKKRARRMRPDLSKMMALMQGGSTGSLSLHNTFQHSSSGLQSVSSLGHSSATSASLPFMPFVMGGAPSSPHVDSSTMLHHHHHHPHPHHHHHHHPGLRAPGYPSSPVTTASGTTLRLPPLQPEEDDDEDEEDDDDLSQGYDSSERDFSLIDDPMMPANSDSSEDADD
UniProt Q6ZTR5: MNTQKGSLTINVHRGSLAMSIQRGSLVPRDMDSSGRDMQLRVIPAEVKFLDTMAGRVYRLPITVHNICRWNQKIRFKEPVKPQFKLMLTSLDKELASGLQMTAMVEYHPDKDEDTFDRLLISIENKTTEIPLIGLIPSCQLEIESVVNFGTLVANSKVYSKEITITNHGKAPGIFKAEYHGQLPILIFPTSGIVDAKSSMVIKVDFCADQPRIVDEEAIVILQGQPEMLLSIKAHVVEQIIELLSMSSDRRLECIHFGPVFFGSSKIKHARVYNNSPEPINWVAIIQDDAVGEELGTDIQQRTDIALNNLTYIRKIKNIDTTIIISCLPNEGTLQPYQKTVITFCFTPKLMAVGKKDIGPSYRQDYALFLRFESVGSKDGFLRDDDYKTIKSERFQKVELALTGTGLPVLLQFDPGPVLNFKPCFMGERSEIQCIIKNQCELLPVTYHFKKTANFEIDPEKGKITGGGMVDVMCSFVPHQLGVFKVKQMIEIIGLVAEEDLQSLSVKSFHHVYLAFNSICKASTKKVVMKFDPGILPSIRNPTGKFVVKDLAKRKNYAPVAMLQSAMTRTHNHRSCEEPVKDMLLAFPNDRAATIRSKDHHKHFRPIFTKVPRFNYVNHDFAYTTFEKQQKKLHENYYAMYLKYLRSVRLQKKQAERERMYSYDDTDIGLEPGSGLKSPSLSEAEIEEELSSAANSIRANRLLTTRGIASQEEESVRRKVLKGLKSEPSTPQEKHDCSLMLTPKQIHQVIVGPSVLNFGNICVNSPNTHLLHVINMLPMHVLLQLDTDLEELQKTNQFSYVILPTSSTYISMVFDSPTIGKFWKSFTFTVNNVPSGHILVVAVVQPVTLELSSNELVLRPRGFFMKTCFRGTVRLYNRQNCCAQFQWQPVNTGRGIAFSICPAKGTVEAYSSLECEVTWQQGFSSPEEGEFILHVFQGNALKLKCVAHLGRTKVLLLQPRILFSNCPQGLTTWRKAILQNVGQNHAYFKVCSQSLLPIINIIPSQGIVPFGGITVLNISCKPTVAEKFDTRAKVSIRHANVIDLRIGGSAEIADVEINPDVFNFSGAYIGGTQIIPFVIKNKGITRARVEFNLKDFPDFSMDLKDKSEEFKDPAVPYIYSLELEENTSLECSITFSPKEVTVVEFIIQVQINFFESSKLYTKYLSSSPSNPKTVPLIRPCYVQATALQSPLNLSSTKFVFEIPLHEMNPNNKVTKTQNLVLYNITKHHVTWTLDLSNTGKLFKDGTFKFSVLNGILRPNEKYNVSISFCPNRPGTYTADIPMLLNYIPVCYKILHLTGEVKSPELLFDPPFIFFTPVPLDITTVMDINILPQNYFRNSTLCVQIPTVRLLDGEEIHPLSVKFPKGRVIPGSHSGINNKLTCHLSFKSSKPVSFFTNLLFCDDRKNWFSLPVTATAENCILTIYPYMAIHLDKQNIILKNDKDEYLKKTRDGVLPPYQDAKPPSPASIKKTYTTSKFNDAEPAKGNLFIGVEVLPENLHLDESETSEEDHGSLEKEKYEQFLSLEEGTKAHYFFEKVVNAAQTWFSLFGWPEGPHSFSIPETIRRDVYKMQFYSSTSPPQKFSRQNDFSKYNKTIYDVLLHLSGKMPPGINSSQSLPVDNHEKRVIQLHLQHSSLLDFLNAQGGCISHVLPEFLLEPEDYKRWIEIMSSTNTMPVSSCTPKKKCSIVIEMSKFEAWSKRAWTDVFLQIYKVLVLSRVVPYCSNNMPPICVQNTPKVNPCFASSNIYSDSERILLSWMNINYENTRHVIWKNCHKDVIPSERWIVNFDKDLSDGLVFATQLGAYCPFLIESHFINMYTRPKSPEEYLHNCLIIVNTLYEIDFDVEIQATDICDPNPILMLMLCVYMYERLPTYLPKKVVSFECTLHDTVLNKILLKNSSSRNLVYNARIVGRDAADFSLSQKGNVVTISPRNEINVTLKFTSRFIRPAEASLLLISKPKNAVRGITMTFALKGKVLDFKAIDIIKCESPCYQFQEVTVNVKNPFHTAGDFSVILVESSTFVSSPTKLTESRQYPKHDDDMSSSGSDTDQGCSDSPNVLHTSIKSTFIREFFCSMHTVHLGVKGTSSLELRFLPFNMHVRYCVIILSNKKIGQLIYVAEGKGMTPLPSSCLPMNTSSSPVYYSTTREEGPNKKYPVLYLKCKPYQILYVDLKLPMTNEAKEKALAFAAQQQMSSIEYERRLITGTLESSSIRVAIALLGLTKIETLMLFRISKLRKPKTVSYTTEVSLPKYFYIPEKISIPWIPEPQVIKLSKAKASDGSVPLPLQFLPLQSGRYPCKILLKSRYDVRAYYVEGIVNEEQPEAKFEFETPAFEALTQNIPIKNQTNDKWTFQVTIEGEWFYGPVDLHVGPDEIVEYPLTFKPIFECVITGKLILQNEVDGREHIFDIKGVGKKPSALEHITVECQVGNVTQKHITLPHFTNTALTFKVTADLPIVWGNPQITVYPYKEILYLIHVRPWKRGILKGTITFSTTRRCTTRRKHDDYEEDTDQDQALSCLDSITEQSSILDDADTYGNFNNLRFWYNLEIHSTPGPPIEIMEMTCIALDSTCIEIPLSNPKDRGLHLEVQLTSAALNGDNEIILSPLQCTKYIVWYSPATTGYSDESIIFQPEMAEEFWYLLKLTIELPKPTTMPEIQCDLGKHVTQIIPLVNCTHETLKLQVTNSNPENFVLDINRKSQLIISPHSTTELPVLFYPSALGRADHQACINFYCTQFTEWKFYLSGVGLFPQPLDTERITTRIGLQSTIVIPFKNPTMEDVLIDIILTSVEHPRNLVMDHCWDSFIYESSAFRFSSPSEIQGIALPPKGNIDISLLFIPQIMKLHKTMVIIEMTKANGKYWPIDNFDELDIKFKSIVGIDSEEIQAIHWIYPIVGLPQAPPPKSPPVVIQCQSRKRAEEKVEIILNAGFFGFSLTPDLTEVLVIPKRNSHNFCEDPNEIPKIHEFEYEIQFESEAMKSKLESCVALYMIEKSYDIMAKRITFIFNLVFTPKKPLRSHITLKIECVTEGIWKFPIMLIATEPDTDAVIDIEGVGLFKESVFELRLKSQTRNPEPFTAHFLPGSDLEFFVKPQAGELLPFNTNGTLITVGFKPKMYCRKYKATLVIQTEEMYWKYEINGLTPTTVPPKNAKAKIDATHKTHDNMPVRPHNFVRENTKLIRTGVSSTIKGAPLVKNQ

Key:
Assay in all cases: log2 fold change, soluble protein after heating vs DMSO (PISA); higher = thermal stabilisation; K562 cells, 10 uM, 30 min; active = over 0.2 and 3.5 SD of the protein, either way, in both replicates (recomputed)
bafetinib = compound: Cc1ccc(NC(=O)c2ccc(CN3CC[C@H](N(C)C)C3)c(C(F)(F)F)c2)cc1Nc1nccc(-c2cncnc2)n1 [bafetinib]
Method in brief: (§1)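 K562 cells (2×10^6 cells/mL) were treated with 10 μM compound for 30 min, and aliquots were heated for 3 min over 48°C-58°C. Pooled aliquots were extracted in PBS with 0.5% NP-40 at 4°C, and the supernatant after 21,000xg for 90 min was measured by TMTpro 16plex LC-MS/MS with channel sums equalised. Reported thermal stability, relative to control samples and from duplicates, is a log2 fold change.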

[1] = compound: Cc1cccc(CC(=O)N2CCc3c2ccc(-c2cn(C)c4ncnc(N)c24)c3F)n1
Method in brief: as §1

nilotinib = compound: Cc1cn(-c2cc(NC(=O)c3ccc(C)c(Nc4nccc(-c5cccnc5)n4)c3)cc(C(F)(F)F)c2)cn1 [nilotinib]
Method in brief: as §1

[2] = compound: Cc1nc(Nc2n[nH]c3c2CN(C(=O)N[C@H](CN(C)C)c2ccccc2)C3(C)C)c2sccc2n1
Method in brief: as §1

dasatinib = compound: Cc1nc(Nc2ncc(C(=O)Nc3c(C)cccc3Cl)s2)cc(N2CCN(CCO)CC2)n1 [dasatinib]
Method in brief: as §1

[3] = compound: Cc1ncc(-c2ccnc(Nc3ccc(S(C)(=O)=O)cc3)n2)n1C(C)C
Method in brief: as §1

[4] = compound: Cn1cc(-c2ccc3c(c2)CCN3C(=O)Cc2cccc(C(F)(F)F)c2)c2c(N)ncnc21
Method in brief: as §1

[5] = compound: Cn1cc(-c2ccc3nnc(C(F)(F)c4ccc5ncccc5c4)n3n2)cn1
Method in brief: as §1

tipifarnib = compound: Cn1cncc1[C@@](N)(c1ccc(Cl)cc1)c1ccc2c(c1)c(-c1cccc(Cl)c1)cc(=O)n2C [tipifarnib]
Method in brief: as §1

mubritinib = compound: FC(F)(F)c1ccc(/C=C/c2nc(COc3ccc(CCCCn4ccnn4)cc3)co2)cc1 [mubritinib]
Method in brief: as §1

[6] = compound: NC(=O)Nc1cc(-c2cccc(F)c2)sc1C(=O)N[C@H]1CCCNC1
Method in brief: as §1

[7] = compound: NC(=O)c1cnc(N[C@@H]2CCCC[C@@H]2N)nc1Nc1cccc(-n2nccn2)c1
Method in brief: as §1

[8] = compound: NC1(c2ccc(-c3nc4ccn5c(=O)[nH]nc5c4cc3-c3ccccc3)cc2)CCC1
Method in brief: as §1

[9] = compound: NCC(=O)Nc1ccc(-n2nc(C(F)(F)F)cc2-c2ccc3c(ccc4ccccc43)c2)cc1
Method in brief: as §1

entinostat = compound: Nc1ccccc1NC(=O)c1ccc(CNC(=O)OCc2cccnc2)cc1 [entinostat]
Method in brief: as §1

vorinostat = compound: O=C(CCCCCCC(=O)Nc1ccccc1)NO [vorinostat]
Method in brief: as §1

citarinostat = compound: O=C(CCCCCCNC(=O)c1cnc(N(c2ccccc2)c2ccccc2Cl)nc1)NO [citarinostat]
Method in brief: as §1

silmitasertib = compound: O=C(O)c1ccc2c(c1)nc(Nc1cccc(Cl)c1)c1ccncc12 [silmitasertib]
Method in brief: as §1

[10] = compound: O=C1NC(=O)C(c2cnc3ccccn23)=C1c1cn2c3c(cc(F)cc13)CN(C(=O)N1CCCCC1)CC2
Method in brief: as §1

[11] = compound: c1cc(OCCN2CCCCC2)cc(-c2n[nH]c3ccc(-c4nnc[nH]4)cc23)c1
Method in brief: as §1

Measured: log2 fold change

CENPF (UniProt P49454)
inactive: bafetinib -0.043 | [1] -0.004 | nilotinib 0.019 | [2] 0.013 | dasatinib 0.058 | [3] -0.161 | [4] -0.122 | [5] -0.065 | tipifarnib 0.142 | mubritinib -0.012 | [6] 0.097 | [7] -0.03 | [8] 0.05 | [9] 0.034 | entinostat -0.029 | vorinostat -0.002 | citarinostat 0.005 | silmitasertib 0.111 | [10] 0.035 | [11] -0.046

CDYL (UniProt Q9Y232)
inactive: bafetinib -0.096 | [1] 0.001 | nilotinib 0.049 | [2] -0.062 | dasatinib 0.055 | [3] -0.073 | [4] 0.021 | [5] -0.024 | tipifarnib 0.103 | mubritinib 0.044 | [6] 0.003 | [7] -0.011 | [8] 0 | [9] 0.037 | entinostat -0.063 | vorinostat -0.059 | citarinostat -0.154 | silmitasertib 0.003 | [10] 0.004 | [11] 0.068

CHMP1A (UniProt Q9HD42)
inactive: bafetinib -0.123 | [1] 0.032 | nilotinib -0.011 | [2] -0.03 | dasatinib -0.026 | [3] 0.011 | [4] 0.013 | [5] 0.034 | tipifarnib 0.047 | mubritinib 0.006 | [6] 0.014 | [7] -0.006 | [8] -0.169 | [9] -0.017 | entinostat 0.002 | vorinostat 0.004 | citarinostat 0.05 | silmitasertib -0.013 | [10] -0.003 | [11] -0.007

CHML (UniProt P26374)
inactive: bafetinib -0.006 | [1] 0.013 | nilotinib -0.02 | [2] -0.013 | dasatinib -0.009 | [3] -0.004 | [4] 0.029 | [5] -0.007 | tipifarnib -0.078 | mubritinib 0.054 | [6] -0.01 | [7] -0.042 | [8] -0.065 | [9] -0.023 | entinostat 0.017 | vorinostat 0.012 | citarinostat 0.031 | silmitasertib 0.007 | [10] -0.092 | [11] 0.013

CHKB (UniProt Q9Y259)
inactive: bafetinib -0.087 | [1] -0.141 | nilotinib 0.096 | [2] -0.142 | dasatinib 0.032 | [3] 0.029 | [4] 0.131 | [5] 0.015 | tipifarnib -0.008 | mubritinib 0.061 | [6] 0.123 | [7] 0.097 | [8] -0.023 | [9] -0.236 | entinostat -0.025 | vorinostat 0.105 | citarinostat 0.066 | silmitasertib -0.033 | [10] -0.002 | [11] 0.013

CDKN2AIP (UniProt Q9NXV6)
inactive: bafetinib 0.034 | [1] 0.021 | nilotinib -0.021 | [2] 0.034 | dasatinib -0.041 | [3] 0.015 | [4] -0.049 | [5] -0.012 | tipifarnib 0.046 | mubritinib -0.011 | [6] 0.003 | [7] 0.044 | [8] -0.018 | [9] -0.026 | entinostat 0.017 | vorinostat 0.027 | citarinostat 0.013 | silmitasertib 0.026 | [10] 0.022 | [11] -0.071

CHERP (UniProt Q8IWX8)
inactive: bafetinib 0.057 | [1] 0.092 | nilotinib -0.13 | [2] -0.353 | dasatinib -0.086 | [3] 0.011 | [4] 0.011 | [5] 0.025 | tipifarnib 0.005 | mubritinib -0.07 | [6] 0.015 | [7] -0.054 | [8] -0.096 | [9] -0.095 | entinostat 0.129 | vorinostat 0.099 | citarinostat -0.001 | silmitasertib 0.03 | [10] -0.121 | [11] -0.042

CHD5 (UniProt Q8TDI0)
inactive: bafetinib -0.076 | [1] -0.013 | nilotinib -0.096 | [2] -0.053 | dasatinib -0.237 | [3] -0.063 | [4] -0.033 | [5] -0.012 | tipifarnib 0.06 | mubritinib 0.045 | [6] 0.025 | [7] -0.11 | [8] 0.029 | [9] -0.016 | entinostat 0.061 | vorinostat 0.09 | citarinostat 0.13 | silmitasertib 0.074 | [10] -0.368 | [11] -0.077

CDKN1C (UniProt P49918)
inactive: bafetinib 0.006 | [1] -0.172 | dasatinib 0.162 | [5] 0.066 | mubritinib 0.356 | [6] 0.094 | [8] 0.252 | entinostat -0.002 | vorinostat 0.015 | citarinostat -0.032 | silmitasertib 0.322 | [10] -0.41 | [11] 0.461

CFAP97 (UniProt Q9P2B7)
inactive: bafetinib 0.048 | [1] 0 | dasatinib 0.077 | [4] -0.078 | [5] -0.156 | tipifarnib -0.069 | [6] 0.048 | [7] 0.094 | [9] 0.126 | entinostat -0.039 | vorinostat 0.09 | [10] 0.046

CEP85 (UniProt Q6P2H3)
inactive: bafetinib 0.055 | [1] 0.044 | dasatinib 0.145 | [5] -0.004 | tipifarnib 0.082 | mubritinib -0.141 | [7] 0.097 | [8] -0.03 | [9] -0.041 | vorinostat 0.017 | citarinostat 0.046 | silmitasertib -0.102 | [11] -0.044

CEBPZOS (UniProt A8MTT3)
inactive: bafetinib 0.066 | [1] 0.014 | nilotinib 0.039 | [2] 0.021 | dasatinib 0.009 | [3] -0.027 | [5] 0.033 | tipifarnib -0.044 | mubritinib 0.121 | [7] 0.022 | [8] -0.124 | [9] 0.028 | vorinostat -0.03 | citarinostat -0.011 | silmitasertib 0.018 | [11] -0.056

CEP152 (UniProt O94986)
inactive: bafetinib -0.066 | [1] -0.178 | nilotinib -0.132 | [2] 0.195 | [3] -0.007 | [5] 0.17 | tipifarnib -0.012 | mubritinib -0.062 | [6] -0.333 | [8] -0.211 | [9] -0.129 | entinostat -0.262 | vorinostat -0.077 | citarinostat -0.044 | silmitasertib -0.02 | [11] 0.083

CEP192 (UniProt Q8TEP8)
inactive: bafetinib -0.182 | [1] 0.037 | nilotinib -0.16 | [2] 0.045 | dasatinib 0.03 | [3] -0.138 | [4] -0.014 | tipifarnib -0.199 | mubritinib 0.101 | [6] -0.334 | [7] -0.283 | [8] 0.023 | [9] 0.079 | entinostat -0.157 | vorinostat -0.229 | citarinostat -0.205 | silmitasertib -0.041 | [10] -0.312 | [11] -0.084

CERS6 isoform 2 (UniProt Q6ZMG9)
inactive: bafetinib 0.011 | [1] 0.079 | nilotinib -0.122 | [2] -0.029 | dasatinib 0.006 | [3] 0.026 | [4] 0.085 | tipifarnib -0.037 | mubritinib -0.017 | [6] -0.122 | [7] -0.04 | [8] -0.04 | [9] 0.008 | entinostat -0.013 | vorinostat -0.018 | citarinostat -0.019 | silmitasertib -0.02 | [10] 0.032 | [11] -0.083

CDSN (UniProt Q15517)
inactive: bafetinib 0.298 | [1] 0.357 | nilotinib 0.072 | [2] 0.012 | dasatinib -0.956 | [3] 0.283 | [4] 0.928 | tipifarnib 0.275 | mubritinib -0.379 | [6] 0.068 | [7] 0.554 | [8] 0.099 | [9] 0.465 | entinostat 0.348 | vorinostat -0.065 | citarinostat -0.41 | silmitasertib -0.092 | [10] -0.064 | [11] 0.187

Reprinted at random: 2 entries already listed.
CHD5 (UniProt Q8TDI0)
inactive: bafetinib -0.076 | [1] -0.013 | nilotinib -0.096 | [2] -0.053 | dasatinib -0.237 | [3] -0.063 | [4] -0.033 | [5] -0.012 | tipifarnib 0.06 | mubritinib 0.045 | [6] 0.025 | [7] -0.11 | [8] 0.029 | [9] -0.016 | entinostat 0.061 | vorinostat 0.09 | citarinostat 0.13 | silmitasertib 0.074 | [10] -0.368 | [11] -0.077

CEP85 (UniProt Q6P2H3)
inactive: bafetinib 0.055 | [1] 0.044 | dasatinib 0.145 | [5] -0.004 | tipifarnib 0.082 | mubritinib -0.141 | [7] 0.097 | [8] -0.03 | [9] -0.041 | vorinostat 0.017 | citarinostat 0.046 | silmitasertib -0.102 | [11] -0.044

Remaining list, next part:

CHD8 (UniProt Q9HCK8)
inactive: bafetinib -0.155 | [5] 0.086 | [10] -0.089

CHCHD5 (UniProt Q9BSY4)
inactive: bafetinib -0.173 | nilotinib 0.141 | [2] -0.186 | [3] -0.011 | [4] 0.074 | [5] 0.153 | tipifarnib 0.278 | mubritinib -0.039 | [6] 0.046 | [8] 0.037 | entinostat 0.182 | silmitasertib -0.079

CFAP47 (UniProt Q6ZTR5)
inactive: bafetinib 0.034 | dasatinib -0.117 | tipifarnib 0.047 | [7] 0.022 | [9] -0.024 | citarinostat -0.042 | [10] -0.025 | [11] -0.008
